These are yes or no findings as the source states them, for the method shown. Binding seen in cells or lysates may run through a third protein. Some results given as binding are weak or reduced against the parent protein; the word gives no strength.
Tests used:
Assay in all cases: co-IP; HA-EB1 WT, 3A or 3D immunoprecipitated from lysates of transfected cells with antibody-coated agarose beads, 4°C, 2 h; immunoblot for p150^glued and CLIP-170
[1] = biological target: HA-EB1 WT (end-binding protein 1, wild type) (UniProt Q15691)
[2] = biological target: HA-EB1 3A (phospho-deficient mutant S40A/T154A/T206A) (UniProt Q15691)
[3] = biological target: HA-EB1 3D (phospho-mimetic mutant S40D/T154D/T206D) (UniProt Q15691)

Amino acid sequences for entries named in this document (tags omitted). A change or cut given only in a name is not applied to a line headed by its entry.
UniProt Q15691: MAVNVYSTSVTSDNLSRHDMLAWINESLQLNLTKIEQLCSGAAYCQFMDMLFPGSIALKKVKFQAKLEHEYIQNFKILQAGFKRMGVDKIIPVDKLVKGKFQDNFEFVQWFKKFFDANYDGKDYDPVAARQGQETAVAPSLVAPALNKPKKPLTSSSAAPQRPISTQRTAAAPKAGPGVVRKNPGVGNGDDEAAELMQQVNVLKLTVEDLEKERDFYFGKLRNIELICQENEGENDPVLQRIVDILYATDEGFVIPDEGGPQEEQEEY

Measured: binding

p150^glued, endogenous (from UniProt Q14203-1 1-1278)
binds: all assays above
